# Test results taken from PMC12670160, “A drug-repurposing screen of FDA- and EMA-approved drugs identifies two NF-κB inhibitors active against eumycetoma” (Journal of Antimicrobial Chemotherapy, 2025).
# Counter-ions that a name gives are not always drawn. Screen size: about 5,300 compounds; about 130 (2.5%) showed an effect of 50% or more. The list shows a part of the results. Square brackets hold non-standard residues; d marks the D form. Peptide text beside a SMILES is read from it. * marks the point of attachment. Sta = CC(C)C[C@H](N)[C@@H](O)CC(=O)O; Isovaleryl = CC(C)CC(=O)*
# Tested on: M. mycetomatis strain mm55
# Conditions: primary screen, metabolic activity vs growth control; 96 h, 2 µM; inhibitor
row,SMILES,% viability [%]
1,"CC(C)(Oc1ccc(C(=O)c2ccc(Cl)cc2)cc1)C(=O)O [ONC0003911, fenofibric acid]",60.7
2,"O=C1c2ccccc2C(Cc2ccnc(F)c2)(Cc2ccnc(F)c2)c2ccccc21 [ONC0003529, dmp543]",96.39
3,"COCCOC(=O)C1=C(C)NC(C)=C(C(=O)OC/C=C/c2ccccc2)C1c1cccc([N+](=O)[O-])c1 (centres unmarked) [ONC0003542, cilnidipine]",87.69
4,"O=S1(=O)OC(c2ccc(O)cc2)(c2ccc(O)cc2)c2ccccc21 [ONC0003808, phenolsulfonphthalein]",71.08
5,"C=C[C@H]1C[N@]2CC[C@H]1C[C@@H]2[C@H](O)c1ccnc2ccccc12 [ONC0003181, cinchonine]",100.9
6,"CCOc1nc2cccc(C(=O)O)c2n1Cc1ccc(-c2ccccc2-c2noc(=O)[nH]2)cc1 [ONC0004822, azilsartan tak536]",68.56
7,"Cc1[nH]c(C=C2C(=O)Nc3ccc(F)cc32)c(C)c1C(=O)NC[C@H](O)CN1CCOCC1 [ONC0005595, su14813]",85.67
8,"O=c1c(-c2ccc(O)cc2)coc2c([C@@H]3O[C@H](CO)[C@@H](O)[C@H](O)[C@H]3O)c(O)ccc12 [ONC0004968, puerarin kakonein]",66.02
9,"CCCCN1CCC(CCC(=O)c2cc(Cl)c(N)cc2OC)CC1 [ONC0002606, rs67333]",88.79
10,"CCn1nc(C(=O)O)c(=O)c2cc3c(cc21)OCO3 [ONC0000281, cinoxacin]",70.93
11,"Cc1cc(C)cc(C(=O)NOCCCCCC(=O)NO)c1 [ONC0000176, lmk235]",112.8
12,"CN/C(=C\[N+](=O)[O-])NCCSCc1csc(CN(C)C)n1 [ONC0005362, nizatidine]",92.97
13,"Cc1cc(C)c(/C=C2\C(=O)Nc3ccccc32)[nH]1 [ONC0001545, semaxanib]",78.09
14,"CC(C)c1cc(-c2ccc(F)c3ccccc23)nc(N)n1 [ONC0005086, rs127445]",107.2
15,"O=C1CC2(CCCC2)CC(=O)N1CCCCN1CCN(c2ncccn2)CC1 [ONC0005350, buspirone hydrochloride]",64.44
16,"OC[C@H]1OC(O)C[C@@H](O)[C@@H]1O (mixture of isomers) [ONC0003476, 2deoxyglucose]",78.39
17,"c1ccc(OCc2ccc(CCCN3CCOCC3)cc2)cc1 [ONC0002891, fomocain]",115.8
18,"CCCCN(CCCC)C(=O)CN1C[C@H](c2ccc3c(c2)OCO3)[C@@H](C(=O)O)[C@@H]1c1ccc(OC)cc1 [ONC0002102, atrasentan hydrochloride]",66.48
19,"CC1(C)C(/C=C/C=C/C=C/C=C2\N(CCCCS(=O)(=O)O)c3ccc4ccccc4c3C2(C)C)=[N+](CCCCS(=O)(=O)[O-])c2ccc3ccccc3c21 [ONC0002025, cardiogreen]",67.83
20,"C[C@H](C(=O)O)c1ccc(-c2ccccc2)c(F)c1 [ONC0004598, flurbiprofen]",66.5
21,"Cc1c(F)cc(C(=O)NC2CC2)cc1-c1ccc(C(=O)NCC(C)(C)C)cn1 [ONC0001861, losmapimod]",107.7

# An excerpt of these results, bar-delimited:
row | SMILES | % viability [%]
17 | c1ccc(OCc2ccc(CCCN3CCOCC3)cc2)cc1 [ONC0002891, fomocain] | 115.8
18 | CCCCN(CCCC)C(=O)CN1C[C@H](c2ccc3c(c2)OCO3)[C@@H](C(=O)O)[C@@H]1c1ccc(OC)cc1 [ONC0002102, atrasentan hydrochloride] | 66.48

# The results go on:

row,SMILES,% viability [%]
1,"COc1ccc(S(=O)(=O)N(C(C)=O)c2ccccc2/C=C/c2cc[n+]([O-])cc2)cc1 [ONC0004882, hmn214]",106.8
2,"O=C(O)[C@@H](c1ccc(OCc2ccc3ccccc3n2)cc1)C1CCCC1 [ONC0005557, veliflapon]",76.74
3,"CCn1ccnc1CC1COc2ccccc2O1 (centres unmarked) [ONC0001419, imiloxan]",88.86
4,"CC(=O)N(OCc1ccccc1)[C@@H]1c2cc(C#N)ccc2OC(C)(C)[C@H]1O [ONC0004462, y27152]",125.5
5,"N#Cc1cc(-c2n[nH]c(-c3ccncc3)n2)ccn1 [ONC0001182, topiroxostat]",99.34
6,"C[N+]1(C)[C@@H]2C[C@@H](OC(=O)[C@H](CO)c3ccccc3)C[C@H]1[C@@H]1O[C@@H]12 [ONC0000425, methscopolamine bromide]",63.9
7,"Cc1sc(C)c2c1CCC=C2c1cnc[nH]1 [ONC0000248, tcg1000]",71.17
8,"CCn1cc(C(=O)O)c(=O)c2cc3c(cc21)OCO3 [ONC0000603, oxolinic acid]",129.7
9,"CC(=O)O[C@@]12CO[C@@H]1C[C@H](O)[C@@]1(C)C(=O)[C@H](O)C3=C(C)[C@@H](O)C[C@@](O)([C@@H](OC(=O)c4ccccc4)[C@H]21)C3(C)C [ONC0004983, 10dab 10deacetylbaccatin]",57.66
10,"O=C(O)c1cnn(-c2nc3cc(OC(F)(F)F)c(Cl)cc3[nH]2)c1 [ONC0001206, jnj42041935]",120.2
11,"COC(=O)c1ccc(O)cc1 [ONC0003859, methylparaben]",64.72
12,"Nc1nc(NCCc2ccc(O)cc2)nc2nc(-c3ccco3)nn12 [ONC0004246, zm241385]",57.65
13,"CCCCCCCCCCCC(=O)N(CCO)CCO [ONC0003853, nnbis2hydroxyethyldodecanamide]",67.81
14,"COC(=O)N(C)c1c(N)nc(-c2nn(Cc3ccccc3F)c3ncccc23)nc1N [ONC0005622, riociguat]",86.35
15,"Cc1nc(-c2cn3c(n2)-c2ccc(-c4cnn(C(C)(C)C(N)=O)c4)cc2OCC3)n(C(C)C)n1 [ONC0000929, taselisib]",95.85
16,"O=C(/C=C/c1ccc(CN(CCO)CCc2c[nH]c3ccccc23)cc1)NO [ONC0004920, laq824 dacinostat]",120.2
17,"CC(C)CC(=O)N[C@H](C(=O)N[C@H](C(=O)N[C@@H](CC(C)C)[C@@H](O)CC(=O)N[C@@H](C)C(=O)N[C@@H](CC(C)C)[C@@H](O)CC(=O)O)C(C)C)C(C)C [ONC0003490, pepstatin a] (Isovaleryl-VV[Sta]A[Sta]-OH)",59.74
18,"CC1(C)CCC(C)(C)c2cc(C3(c4ccc5cc(C(=O)O)ccc5c4)SCCS3)ccc21 [ONC0001639, mm11253]",70.81
19,"O=c1cc[nH]c(=S)[nH]1 [ONC0002403, 2thiouracil]",79.01
20,"N=C(N)NC(=O)c1cnn(-c2cccc3ncccc23)c1C1CC1 [ONC0001657, zoniporide]",82.36
21,"c1ccc(CCNc2nc(-c3ccccc3)cs2)cc1 [ONC0003762, fanetizole]",120.3

row,SMILES,% viability [%]
1,"COC(=O)C1=C(C)NC(C)=C(C(=O)OCCSc2ccccc2)C1C (centres unmarked) [ONC0000081, pca4248]",107.9
2,"C[C@H](O)C(=O)Nc1c(I)c(C(=O)NC(CO)CO)c(I)c(C(=O)NC(CO)CO)c1I [ONC0002069, iopamidol]",64.43
3,"CN(C)C(=O)Oc1cc(OC(=O)N(C)C)cc(C(O)CNC(C)(C)C)c1 (centres unmarked) [ONC0004231, bambuterol hydrochloride]",62.71
4,"Cc1cccc(C#Cc2ccccc2)n1 [ONC0002625, mpep]",98.76
5,"c1ccc(C(NCc2cccnc2)(c2ccccc2)c2ccccc2)cc1 [ONC0003020, ucl2077]",70.37
6,"N[C@H](C(=O)O)c1cc(O)cc(O)c1 [ONC0001512, 35dhpgs]",79.83
7,"Cn1cc([S+](C)[O-])c(=O)c2ccc(F)cc21 (centres unmarked) [ONC0001984, flosequinan]",105.9
8,"O=C(O)c1cc2ccccc2s1 [ONC0003749, bl5583]",99.79
9,"CO/N=C(\C(=O)N[C@@H]1C(=O)N2C(C(=O)O)=C(Cn3ccc(=N)n3CCO)CS[C@H]12)c1csc(N)n1 [ONC0004384, cefoselis sulfate]",127.4
10,"CCCN1CCC[C@H](c2cccc(O)c2)C1 [ONC0002744, r33hydroxyphenylnpropylpiperidine hydrochloride]",58.06
11,"CC1Cc2ccccc2N1NC(=O)c1ccc(Cl)c(S(N)(=O)=O)c1 (centres unmarked) [ONC0000372, indapamide]",91.11
12,"COc1ccc(C2CC(c3c(O)cc(C)oc3=O)=NCCS2)c(OC)c1 (centres unmarked) [ONC0002676, kf38789]",61.68
13,"CCC(=O)c1c(O)cc(O)cc1O [ONC0005354, flopropione]",89.06
14,"C=CC(=O)Nc1ccc2ncnc(Nc3cccc(Br)c3)c2c1 [ONC0005144, pd168393]",107.8
15,"N#Cc1ccnc(N2C(=O)CC[C@H]2C(=O)N(c2cncc(F)c2)[C@H](C(=O)NC2CC(F)(F)C2)c2ccccc2Cl)c1 [ONC0000852, ivosidenib]",77.83
16,"CNC(=O)c1cnn(-c2nc(N)c3ncn([C@@H]4O[C@H](CO)[C@@H](O)[C@H]4O)c3n2)c1 [ONC0003450, regadenoson]",65.12
17,"CCO[C@@H](Cc1ccc(OCCn2c(C)ccc2-c2ccc(SC)cc2)cc1)C(=O)O [ONC0002679, saroglitazar]",69.37
18,"Nc1ccc(S(=O)(=O)Nc2ccnn2-c2ccccc2)cc1 [ONC0000643, sulfaphenazole]",127.8
19,"CCN(C)C(=O)Oc1cccc([C@H](C)N(C)C)c1 [ONC0004201, rivastigmine tartrate]",105.8
20,"C[C@@H](N)c1ccc(C(=O)Nc2ccnc3[nH]ccc23)cc1 [ONC0001191, y33075 dihydrochloride]",84.21
